Experimental data from paper PMC8042123.

The chains behind the UniProt entries cited, without tags or fusion partners. Where a name states a change or a piece, a line headed by the entry shows the natural chain unless it says otherwise.
UniProt Q96524: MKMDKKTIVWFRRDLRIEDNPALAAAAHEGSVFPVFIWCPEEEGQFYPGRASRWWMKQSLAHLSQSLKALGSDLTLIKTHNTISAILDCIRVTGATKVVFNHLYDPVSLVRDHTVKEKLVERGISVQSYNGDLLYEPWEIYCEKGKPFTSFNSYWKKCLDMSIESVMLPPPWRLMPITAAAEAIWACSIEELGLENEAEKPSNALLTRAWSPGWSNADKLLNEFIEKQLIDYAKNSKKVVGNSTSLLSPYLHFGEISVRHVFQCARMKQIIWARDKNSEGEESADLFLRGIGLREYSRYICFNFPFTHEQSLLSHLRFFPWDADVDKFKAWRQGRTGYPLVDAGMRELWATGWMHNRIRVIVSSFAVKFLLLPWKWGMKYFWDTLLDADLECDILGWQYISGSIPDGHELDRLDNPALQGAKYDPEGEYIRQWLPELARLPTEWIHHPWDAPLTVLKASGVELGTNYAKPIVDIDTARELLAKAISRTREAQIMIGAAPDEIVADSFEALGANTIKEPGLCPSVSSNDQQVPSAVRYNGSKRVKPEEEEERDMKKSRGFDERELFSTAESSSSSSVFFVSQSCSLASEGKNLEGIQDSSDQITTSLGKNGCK
UniProt O82343: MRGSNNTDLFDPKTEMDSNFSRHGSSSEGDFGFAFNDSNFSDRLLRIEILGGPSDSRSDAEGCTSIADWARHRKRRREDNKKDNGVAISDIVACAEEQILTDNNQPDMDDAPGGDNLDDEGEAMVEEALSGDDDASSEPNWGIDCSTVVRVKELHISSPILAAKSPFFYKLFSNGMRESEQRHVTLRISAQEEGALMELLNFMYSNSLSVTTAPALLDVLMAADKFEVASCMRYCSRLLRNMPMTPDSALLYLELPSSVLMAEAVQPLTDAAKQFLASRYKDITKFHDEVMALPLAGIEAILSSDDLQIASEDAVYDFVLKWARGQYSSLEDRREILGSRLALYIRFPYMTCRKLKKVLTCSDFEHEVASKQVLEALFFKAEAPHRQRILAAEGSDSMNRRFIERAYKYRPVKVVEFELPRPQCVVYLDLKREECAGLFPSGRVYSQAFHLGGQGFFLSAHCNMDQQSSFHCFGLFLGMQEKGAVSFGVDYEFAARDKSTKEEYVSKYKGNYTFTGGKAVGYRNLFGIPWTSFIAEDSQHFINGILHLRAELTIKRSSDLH
UniProt Q9FPW6: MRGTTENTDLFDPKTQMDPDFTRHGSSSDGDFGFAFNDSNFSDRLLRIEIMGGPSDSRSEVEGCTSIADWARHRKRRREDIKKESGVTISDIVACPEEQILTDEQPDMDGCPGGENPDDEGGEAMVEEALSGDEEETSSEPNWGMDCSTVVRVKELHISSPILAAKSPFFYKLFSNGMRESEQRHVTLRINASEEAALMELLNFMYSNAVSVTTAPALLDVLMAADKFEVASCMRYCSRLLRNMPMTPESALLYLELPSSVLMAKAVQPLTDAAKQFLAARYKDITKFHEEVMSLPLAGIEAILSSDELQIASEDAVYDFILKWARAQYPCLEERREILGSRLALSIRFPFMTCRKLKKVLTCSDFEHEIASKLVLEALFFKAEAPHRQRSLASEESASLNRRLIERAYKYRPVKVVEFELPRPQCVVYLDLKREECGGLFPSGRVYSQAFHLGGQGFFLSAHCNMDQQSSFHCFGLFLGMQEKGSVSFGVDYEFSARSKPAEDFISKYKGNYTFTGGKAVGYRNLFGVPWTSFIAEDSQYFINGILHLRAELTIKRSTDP

Experiments:
[1] = target: CRY2^D387A, BiFC fusion (Arabidopsis thaliana) (UniProt Q96524); test: split reporter; BiFC (nYFP/cCFP) in Arabidopsis leaves infiltrated with Agrobacterium; confocal microscopy, Hoechst 33342 for nuclei
[2] = target: CRY2, BiFC fusion (Arabidopsis thaliana) (UniProt Q96524); test: as above
[3] = target: cLUC-CRY2 (Arabidopsis thaliana) (UniProt Q96524); test: split reporter; split-luciferase complementation in N. benthamiana leaves, pairs co-expressed with FGFP-PPK1
[4] = target: FGFP-CRY2 (Flag-GFP-tagged CRY2) (Arabidopsis thaliana) (UniProt Q96524); test: co-IP; 7-day-old transgenic Arabidopsis seedlings, etiolated then blue light (100 μmol m^-2 s^-1) for the indicated time, or grown in long days or continuous white light; GFP-trap beads; anti-Flag and anti-Myc blots
[5] = target: Flag-CRY2^D387A (Arabidopsis thaliana) (UniProt Q96524); test: co-IP; HEK293T cells co-transfected (with PPK1, PPK1^D267N or SPA1 as indicated), blue light 100 μmol m^-2 s^-1 for 2 h; lysis in 1% Brij buffer, Anti-FLAG M2 affinity gel 4 °C 2 h, elution with 3xFlag peptide, immunoblot
[6] = target: CRY2^P532L, Flag-tagged, phosphorylated (co-expressed with PPK1, blue light) (Arabidopsis thaliana) (UniProt Q96524); test: as above
[7] = target: CCE2 (CRY2 C-terminal extension), Flag-tagged (Arabidopsis thaliana) (UniProt Q96524); test: as above
[8] = target: Flag-LRB1 (Arabidopsis thaliana) (UniProt O82343); test: as above

- binding [3]: binds
Substance: LRB2ΔBTB-nLUC (from UniProt Q9FPW6)

- binding [8]: binds
Substance: phosphorylated CRY2 (co-expressed with PPK1, blue light; prey of Flag-LRB1 and Flag-LRB2) (from UniProt Q96524 1-612)

Second part, the substance before the results:

Substance: LRB1, BiFC fusion (from UniProt O82343)
- binding [1]: no binding
- binding [2]: binds

Substance: LRB1ΔBTB-nLUC (from UniProt O82343)
- binding [3]: binds

Substance: LRB2, BiFC fusion (from UniProt Q9FPW6)
- binding [1]: no binding

Substance: Myc-LRB1 (transgenic Arabidopsis) (from UniProt O82343)
- binding [4]: binds

Substance: Myc-LRB2 (from UniProt Q9FPW6)
- binding [5]: no binding
- binding [6]: binds
- binding [7]: binds

No constants are given. Whether binding was seen depends on the method and setting. Binding seen in cells or lysates may run through a third protein. For some of these results: A result given as binding can be weak or reduced; the word gives no strength. Each block holds one substance with its values, some of them ahead of it.
